Data published in PubChem BioAssay AID1347075 (National Center for Advancing Translational Sciences (NCATS), 2019).
Out of some 400,000 compounds screened, about 5,500 (1.4%) were called active. Inconclusive means that the source gave no clear call. Such entries were picked first, then a sample of the others. Calls follow the shape of the dose curve; as a rule, active = well fitted cell-killing curve with a large enough effect; inconclusive = small, poorly fitted or top-dose-only effect, or effect the other way; inactive = flat fitted curve, though single readings scatter. Potencies of inconclusive entries are doubtful fits and often do not repeat.

test: qHTS assay for MDR1-selective chemotherapeutics: Primary screen using the parental adenocarcinoma cell KB-3-1; details: KB-3-1 viability, CellTiter-Glo ATP luminescence, 72 h; activity change, negative = cytotoxic: at 46.1 µM (top of the series); also: nearly all actives have a fitted effect of over 60% in size
How it was run: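 Using CellTiter-Glo luminescence, growth of non-resistant KB-3-1 adenocarcinoma cells is assessed 72 h after pin-tool compound addition at 37 °C. Normalized responses across the concentration series yield fitted curves.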
% is scaled to controls: 0 for no effect and ±100 for the full control effect; potency is read from the fitted curve at half-maximal effect.

| SMILES | Potency | activity change, negative = cytotoxic |
| --- | --- | --- |
| CSc1cccc(NC(=O)CN(c2ccccc2)S(=O)(=O)N(C)C)c1 | inconclusive: 23.1 µM [cytotoxic, single point] |  |
| CC1=C(c2ccccc2)C(O)(c2ccccc2)C(C)C1=O (stereo unspecified) | inconclusive: 16.4 µM [cytotoxic, single point] |  |
| Cc1ccc(C(=O)NS(=O)(=O)c2ccccc2)cc1 |  | inactive: -5.8% |
| COc1ccccc1OCC(=O)NCCSCc1cccc(Cl)c1 |  | inactive: 8.64% |
| O=C(Cc1ccc(OCC2CCCCC2)cc1)NO | inconclusive: 0.0052 µM [rising, full curve, poor fit] |  |
| CCNc1nc(Cl)nc(NCc2ccccc2)n1 |  | inactive: 0.228% |
| CN[C@H]1C[C@H]2c3cc(-c4ccccc4)ccc3CCN2C(=O)[C@H]1[C@H](C)O |  | inactive: -14.8% |
| O=C1c2ccccc2-n2c1nc1ccccc1c2=O | inconclusive: 29.1 µM [cytotoxic, single point] |  |
| COc1ccc(CC(N)c2csc(NC(=O)Nc3ccccc3-c3ccccc3)n2)cc1 (stereo unspecified) | inconclusive: 29.1 µM [cytotoxic, single point] |  |
| Cc1cc(N2CCCCC2)nc2ccc(NC(=O)c3cccc(F)c3)cc12 | inconclusive: 20.6 µM [cytotoxic, single point] |  |
| O=C1CN(C(=O)Cn2ncc(Cl)c(Cl)c2=O)c2ccccc2N1 | inconclusive: 29.1 µM [cytotoxic, single point] |  |
| CCC1(O)C(=O)OCc2c1cc1n(c2=O)Cc2cc3c(N)cccc3nc2-1 (stereo unspecified) | active: 0.206 µM |  |
| O[C@H]1CN(CC2CCCCC2)[C@@H](c2ccc(Cl)cc2)C[C@@H]1n1cc(-c2ccc(F)cc2)nn1 | inconclusive: 23.1 µM [cytotoxic, partial curve, poor fit] |  |
| CCCCNC(=O)C1(C)CCCCN1C(=O)c1ccc2c(c1)C(C)(C)CCC2(C)C (stereo unspecified) | inconclusive: 29.1 µM [cytotoxic, single point] |  |
| COC(=O)C(NC(=O)c1ccccc1C(=O)O)c1ccc2ccccc2c1 (stereo unspecified) |  | inactive: 18.2% |
| O=C(Cn1c(=O)n(-c2ccccc2)c(=O)c2sc3ccccc3c21)N1CCCC1 |  | inactive: -3.65% |
| COc1cc(/C=C2/C=Cc3ccccc32)ccc1N(C)C | inconclusive: 32.6 µM [cytotoxic, single point] |  |
| Cc1onc(-c2ccccc2)c1C(=O)N/N=C/C(Br)=C/c1ccccc1 | inconclusive: 29.1 µM [cytotoxic, single point] |  |
| COc1ccc(-c2cc(C3CCN(Cc4cccc(C(F)(F)F)c4)CC3)[nH]n2)cc1 | inconclusive: 32.6 µM [cytotoxic, single point] |  |
| O=Nc1c(-c2c(O)[nH]c3cc(Br)ccc23)[nH]c2ccccc12 | inconclusive: 29.1 µM [cytotoxic, single point] |  |
| Cc1ccc(N(C(=O)CS(=O)CC(=O)Nc2ccc(F)cc2)C(C)C(=O)NC(C)(C)C)cc1 (stereo unspecified) |  | inactive: 12.9% |
| NC(=O)/C(=C\c1ccco1)NC(=O)c1ccco1 |  | inconclusive: -3.04% |
| Cc1nnc(SCc2cc(=O)[nH]c(/N=C(\N)Nc3ccccc3)n2)s1 | inconclusive: 29.1 µM [cytotoxic, single point] |  |
| CN1CCN(CCC(=O)Nc2ccc(C3CCCC3)cc2)CC1 | inconclusive: 29.1 µM [cytotoxic, single point] |  |

| SMILES | Potency | activity change, negative = cytotoxic |
| --- | --- | --- |
| COc1ccc(CCN=C(N)Nc2nc(C)cc(C)n2)cc1 | inconclusive: 20.6 µM [cytotoxic, single point] |  |
| COc1ccc(C2CC(c3cccs3)=Nc3ccccc3S2)cc1 (stereo unspecified) | inconclusive: 18.4 µM [cytotoxic, single point] |  |
| Nc1cc(-c2ccccc2)nn1Cc1ccc(Cl)cc1 | inconclusive: 18.4 µM [cytotoxic, single point] |  |
| O=S(=O)(c1ccc(N=C2NN=C(c3cc(F)ccc3F)CS2)cc1)N1CCOCC1 | inconclusive: 25.9 µM [cytotoxic, single point] |  |
| COc1ccc(CCC(=O)Nc2cc3c4c(c2)CCC(=O)N4CCC3)cc1 |  | inactive: 5.43% |
| COc1ccc(CCNC(=O)CSc2nnc(-c3cccc(C)c3)o2)cc1OC |  | inactive: 12% |
| N#CC1=CN(Cc2ccccc2)C=C(/C=N/Nc2ccccc2)C1 | inconclusive: 20.6 µM [cytotoxic, single point] |  |
| CCN(CCCNC(=O)c1cc2cc3ccc(C)cc3nc2s1)c1ccccc1 | inconclusive: 0.58 µM [cytotoxic, partial curve, poor fit] |  |
| O=c1[nH]c2sc3c(c2c2nncn12)CCCC3 | inconclusive: 32.6 µM [cytotoxic, single point] |  |
| COc1cc(/C=N/NC(=O)c2ccc3ccccc3c2)ccc1Oc1ccc([N+](=O)[O-])cn1 | inconclusive: 25.9 µM [rising, single point] |  |
| OC1(c2ccc(Br)cc2)CN(c2ccccc2)C2=[N+]1CCS2 (stereo unspecified) | inconclusive: 9.2 µM [cytotoxic, partial curve] |  |
| CCOc1ccc(C(=O)NC(=S)Nc2cccnc2)cc1[N+](=O)[O-] |  | inactive: 22.1% |
| Cn1c(Cl)cnc1C1CC(=O)c2cc(Cl)ccc2O1 (stereo unspecified) | inconclusive: 2.59 µM [cytotoxic, full curve, poor fit] |  |
| Cc1cccc2c(C(=O)N3CCN(c4ccccc4)CC3)cc(-c3ccncc3)nc12 | active: 4.11 µM |  |
| CC1CCC(NC(=O)c2nn(C)c3c2CSc2ccccc2-3)CC1 (stereo unspecified) | inconclusive: 16.4 µM [cytotoxic, single point] |  |
| COc1ccc(CNCC2COc3ccccc3O2)cc1 (stereo unspecified) |  | inactive: -2.73% |
| CCCCN(CCCC)CC(O)Cn1cc(/C=C/C(=O)c2ccccc2)c2ccccc21 (stereo unspecified) | inconclusive: 23.1 µM [cytotoxic, single point] |  |
| Cc1ccc[n+](CC(=O)c2ccc(Br)cc2)c1 |  | inactive: 17.4% |
| CSc1nc(Oc2ccc3ccccc3c2)c2ccccc2n1 | inconclusive: 29.1 µM [cytotoxic, single point] |  |
| COC(=O)C1CCN(C(=O)c2cc(-c3ccc(Cl)s3)nc3ccccc23)CC1 | inconclusive: 18.4 µM [cytotoxic, single point] |  |
| CC(C)(O)C#Cc1ccc([C@@H]2C[C@H]3CN(c4ccccc4)C(=O)[C@]34CCCN24)s1 | inconclusive: 25.9 µM [cytotoxic, partial curve, poor fit] |  |
| CCn1cc(C(=O)NCc2ccccc2)c(=O)c2cc(F)c(N3CCN(C(=O)c4ccco4)CC3)cc21 | inconclusive: 29.1 µM [cytotoxic, single point] |  |
| O=C(c1cccnc1)n1nc(NCc2ccccc2)nc1NCc1ccccc1 |  | inconclusive: -4.16% |
| CCC1(CC)Cc2ccccc2-c2nc(NCCO)[nH]c(=O)c21 | inconclusive: 0.206 µM [cytotoxic, partial curve, poor fit] |  |

Some of the entries so far, as tab-separated lines.
SMILES	Potency	activity change, negative = cytotoxic
CC1=C(c2ccccc2)C(O)(c2ccccc2)C(C)C1=O (stereo unspecified)	inconclusive: 16.4 µM [cytotoxic, single point]	
Cc1ccc(C(=O)NS(=O)(=O)c2ccccc2)cc1		inactive: -5.8%
COc1ccccc1OCC(=O)NCCSCc1cccc(Cl)c1		inactive: 8.64%
O=C(Cc1ccc(OCC2CCCCC2)cc1)NO	inconclusive: 0.0052 µM [rising, full curve, poor fit]	
CCNc1nc(Cl)nc(NCc2ccccc2)n1		inactive: 0.228%
CN[C@H]1C[C@H]2c3cc(-c4ccccc4)ccc3CCN2C(=O)[C@H]1[C@H](C)O		inactive: -14.8%
O=C1c2ccccc2-n2c1nc1ccccc1c2=O	inconclusive: 29.1 µM [cytotoxic, single point]	
COc1ccc(CC(N)c2csc(NC(=O)Nc3ccccc3-c3ccccc3)n2)cc1 (stereo unspecified)	inconclusive: 29.1 µM [cytotoxic, single point]	
Cc1cc(N2CCCCC2)nc2ccc(NC(=O)c3cccc(F)c3)cc12	inconclusive: 20.6 µM [cytotoxic, single point]	
O=C1CN(C(=O)Cn2ncc(Cl)c(Cl)c2=O)c2ccccc2N1	inconclusive: 29.1 µM [cytotoxic, single point]	
CCC1(O)C(=O)OCc2c1cc1n(c2=O)Cc2cc3c(N)cccc3nc2-1 (stereo unspecified)	active: 0.206 µM	
O[C@H]1CN(CC2CCCCC2)[C@@H](c2ccc(Cl)cc2)C[C@@H]1n1cc(-c2ccc(F)cc2)nn1	inconclusive: 23.1 µM [cytotoxic, partial curve, poor fit]	
CCCCNC(=O)C1(C)CCCCN1C(=O)c1ccc2c(c1)C(C)(C)CCC2(C)C (stereo unspecified)	inconclusive: 29.1 µM [cytotoxic, single point]	
COC(=O)C(NC(=O)c1ccccc1C(=O)O)c1ccc2ccccc2c1 (stereo unspecified)		inactive: 18.2%
O=C(Cn1c(=O)n(-c2ccccc2)c(=O)c2sc3ccccc3c21)N1CCCC1		inactive: -3.65%
COc1cc(/C=C2/C=Cc3ccccc32)ccc1N(C)C	inconclusive: 32.6 µM [cytotoxic, single point]	
Cc1onc(-c2ccccc2)c1C(=O)N/N=C/C(Br)=C/c1ccccc1	inconclusive: 29.1 µM [cytotoxic, single point]	
COc1ccc(-c2cc(C3CCN(Cc4cccc(C(F)(F)F)c4)CC3)[nH]n2)cc1	inconclusive: 32.6 µM [cytotoxic, single point]	
O=Nc1c(-c2c(O)[nH]c3cc(Br)ccc23)[nH]c2ccccc12	inconclusive: 29.1 µM [cytotoxic, single point]	
Cc1ccc(N(C(=O)CS(=O)CC(=O)Nc2ccc(F)cc2)C(C)C(=O)NC(C)(C)C)cc1 (stereo unspecified)		inactive: 12.9%

2 entries drawn at random from the list so far:

| SMILES | Potency | activity change, negative = cytotoxic |
| --- | --- | --- |
| COc1ccccc1OCC(=O)NCCSCc1cccc(Cl)c1 |  | inactive: 8.64% |
| CCC1(CC)Cc2ccccc2-c2nc(NCCO)[nH]c(=O)c21 | inconclusive: 0.206 µM [cytotoxic, partial curve, poor fit] |  |

(continued)

| SMILES | Potency | activity change, negative = cytotoxic |
| --- | --- | --- |
| CCOC(=O)c1ccc(S(=O)(=O)NCC(c2ccc(N(C)C)cc2)c2c[nH]c3ccccc23)cc1 (stereo unspecified) |  | inactive: -20.3% |
| Cc1ccc(OCc2cnc(Cl)s2)c(C)c1 |  | inactive: 1.11% |
| CCCCC(CC)CNC(=O)CCCn1c(=O)[nH]c2ccsc2c1=O (stereo unspecified) |  | inactive: 0% |
| COc1cc(/C=C2/SC(=S)N(CCC(=O)Nc3cccnc3)C2=O)cc(OC)c1OC |  | inactive: 1.17% |
| CCC(C(=O)NC1CCCC1)n1c(-c2ccnc3ccccc23)nc2ccccc21 (stereo unspecified) |  | inconclusive: 4.9% |
| CCC[C@H]1CN(c2ccccc2)C(=O)[C@@H]1CC(=O)Nc1ccc(Br)cc1 |  | inactive: -2.27% |
| CCOC(=O)N1CCN(C(=O)C[C@@H]2C[C@@]3(C(=O)OC)CCCCC=C3N(Cc3cccc4ccccc34)C2=O)CC1 | inconclusive: 29.1 µM [cytotoxic, single point] |  |
| COc1ccc(NC(=O)N(C)C[C@@H]2OCc3cnnn3CCCC(=O)N([C@H](C)CO)C[C@@H]2C)cc1 | inconclusive: 13 µM [cytotoxic, partial curve, poor fit] |  |
| O=C(NCc1cccs1)C1CCCN(C(=O)Nc2ccccc2)C1 (stereo unspecified) | inconclusive: 23.1 µM [cytotoxic, single point] |  |
| NC(=O)c1ccc(NC(=O)COC(=O)CC(NC(=O)c2ccccc2Cl)c2ccccc2)cc1 (stereo unspecified) |  | inactive: 15.2% |
| COC(=O)c1cc(NC(=O)c2ccc(Cn3cc(Cl)cn3)o2)cc(C(=O)OC)c1 |  | inactive: -8.93% |
| CCc1ccc(NC(=O)CN2C(=O)C3(SCC(=O)N3c3ccccc3)c3ccccc32)cc1 (stereo unspecified) |  | inactive: -4.9% |
| Cc1c(NC(=S)NC(=O)c2cc3ccccc3o2)cccc1C(=O)O |  | inconclusive: -19.2% |
| CCOC(=O)C1=C(CSc2nc3c(cc2C#N)CCC3)OC(N)=C(C#N)C1c1ccccc1 (stereo unspecified) |  | inactive: 6.19% |
| COc1ccc(C(=O)CSc2nnc(CNC(=O)c3ccc(S(=O)(=O)N(C)C)cc3)o2)cc1 |  | inactive: 0.859% |
| Cc1cccc2sc(NC(=O)Cn3c(C)csc3=O)nc12 | inconclusive: 29.1 µM [rising, single point] |  |
| Cc1ccc2c(c1)[C@H]1[C@H](CO2)[C@H](c2ccccc2)[C@]2(C)C(=O)N(Cc3ccc(Cl)cc3)CC(=O)N12 | inconclusive: 29.1 µM [cytotoxic, single point] |  |
| CC(C)(C)c1ccc(S(=O)(=O)N2CCN(C(=O)C3=COCCO3)CC2)cc1 | inconclusive: 29.1 µM [cytotoxic, single point] |  |
| CC1(CCCN2C(=O)c3ccccc3C2=O)OCCO1 |  | inactive: 7.54% |
| COCCN1Cc2c(sc(C)c2C)N(C(=O)c2ccccc2)C1 |  | inactive: 10.6% |
| CC(C)/C=C(/C(=O)c1ccc(Cl)cc1Cl)n1cncn1 |  | inactive: -21% |
| CC1CCCC(NC(=O)c2cccc(N3CCCC3=O)c2)C1C (stereo unspecified) |  | inconclusive: 0.581% |
| CC[C@]12c3[nH]c4cc(CCC(=O)N(C)C)ccc4c3CCN1C(=O)[C@@H](CC(=O)NCC13CC4CC(CC(C4)C1)C3)C[C@@H]2C(=O)N1CCN(C(=O)c2ccco2)CC1 |  | inactive: 0% |
